Drawing on US20030012792A1, this text covers binding for one molecule.

By UniProt entry, the sequences of proteins in these tests, tags left out. Where a name states a change or a piece, a line headed by the entry shows the natural chain unless it says otherwise.
UniProt P07288: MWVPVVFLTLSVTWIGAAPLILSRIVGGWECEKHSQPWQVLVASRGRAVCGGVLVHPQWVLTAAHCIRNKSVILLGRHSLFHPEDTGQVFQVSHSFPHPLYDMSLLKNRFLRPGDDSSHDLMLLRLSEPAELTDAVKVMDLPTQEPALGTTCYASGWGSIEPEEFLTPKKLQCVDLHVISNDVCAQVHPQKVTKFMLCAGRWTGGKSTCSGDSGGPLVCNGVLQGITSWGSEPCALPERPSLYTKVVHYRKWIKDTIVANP

The assay has as its target Human Prostate-Specific Antigen (purified human PSA, Vitro Diagnostics) (human) (UniProt P07288). The experiment in a line: equimolar PSA and ACT preincubated 4 h at 37 C; complex confirmed by SDS-PAGE.

Results are given in words; binding and its absence hold for the method and conditions named. Some results given as binding are weak or reduced against the parent protein; the word gives no strength.

B1: alpha-1 antichymotrypsin (ACT, Sigma Chemical Co.) (protein, UniProt P01011 24-423, looked up)
chain: HPNSPLDEENLTQENQDRGTHVDLGLASANVDFAFSLYKQLVLKAPDKNVIFSPLSISTALAFLSLGAHNTTLTEILKGLKFNLTETSEAEIHQSFQHLLRTLNQSSDELQLSMGNAMFVKEQLSLLDRFTEDAKRLYGSEAFATDFQDSAAAKKLINDYVKNGTRGKITDLIKDLDSQTMMVLVNYIFFKAKWEMPFDPQDTHQSRFYLSKKKWVMVPMMSLHHLTIPYFRDEELSCTVVELKYTGNASALFILPDQDKMEEVEAMLLPETLKRWRDSLEFREIGELYLPKFSISRDYNLNDILLQLGIEEAFTSKADLSGITGARNLAVSQVVHKAVLDVFEEGTEASAATAVKITLLSALVETRTIVRFNRPFLMIIVPTDTQNIFFMSKVTNPKQA
For the molecule B1, the binding result is recorded as “binds”.
